Laboratory results as given in publication PMC9706435.

The chains behind the UniProt entries cited, without tags or fusion partners. Where a name states a change or a piece, a line headed by the entry shows the natural chain unless it says otherwise.
UniProt F4IHY7: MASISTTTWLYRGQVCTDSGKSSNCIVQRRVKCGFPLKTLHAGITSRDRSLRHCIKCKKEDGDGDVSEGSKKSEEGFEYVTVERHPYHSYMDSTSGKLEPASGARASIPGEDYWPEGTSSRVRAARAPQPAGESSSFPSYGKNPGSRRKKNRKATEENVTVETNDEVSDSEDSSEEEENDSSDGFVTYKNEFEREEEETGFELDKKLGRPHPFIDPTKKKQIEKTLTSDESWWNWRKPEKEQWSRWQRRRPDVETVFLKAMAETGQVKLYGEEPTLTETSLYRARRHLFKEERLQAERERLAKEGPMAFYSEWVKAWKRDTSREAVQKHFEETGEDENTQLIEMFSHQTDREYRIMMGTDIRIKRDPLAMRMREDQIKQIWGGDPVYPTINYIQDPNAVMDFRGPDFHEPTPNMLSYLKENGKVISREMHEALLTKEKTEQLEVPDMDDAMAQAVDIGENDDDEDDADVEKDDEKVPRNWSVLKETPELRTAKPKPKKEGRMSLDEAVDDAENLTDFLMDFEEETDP
UniProt Q9SR02: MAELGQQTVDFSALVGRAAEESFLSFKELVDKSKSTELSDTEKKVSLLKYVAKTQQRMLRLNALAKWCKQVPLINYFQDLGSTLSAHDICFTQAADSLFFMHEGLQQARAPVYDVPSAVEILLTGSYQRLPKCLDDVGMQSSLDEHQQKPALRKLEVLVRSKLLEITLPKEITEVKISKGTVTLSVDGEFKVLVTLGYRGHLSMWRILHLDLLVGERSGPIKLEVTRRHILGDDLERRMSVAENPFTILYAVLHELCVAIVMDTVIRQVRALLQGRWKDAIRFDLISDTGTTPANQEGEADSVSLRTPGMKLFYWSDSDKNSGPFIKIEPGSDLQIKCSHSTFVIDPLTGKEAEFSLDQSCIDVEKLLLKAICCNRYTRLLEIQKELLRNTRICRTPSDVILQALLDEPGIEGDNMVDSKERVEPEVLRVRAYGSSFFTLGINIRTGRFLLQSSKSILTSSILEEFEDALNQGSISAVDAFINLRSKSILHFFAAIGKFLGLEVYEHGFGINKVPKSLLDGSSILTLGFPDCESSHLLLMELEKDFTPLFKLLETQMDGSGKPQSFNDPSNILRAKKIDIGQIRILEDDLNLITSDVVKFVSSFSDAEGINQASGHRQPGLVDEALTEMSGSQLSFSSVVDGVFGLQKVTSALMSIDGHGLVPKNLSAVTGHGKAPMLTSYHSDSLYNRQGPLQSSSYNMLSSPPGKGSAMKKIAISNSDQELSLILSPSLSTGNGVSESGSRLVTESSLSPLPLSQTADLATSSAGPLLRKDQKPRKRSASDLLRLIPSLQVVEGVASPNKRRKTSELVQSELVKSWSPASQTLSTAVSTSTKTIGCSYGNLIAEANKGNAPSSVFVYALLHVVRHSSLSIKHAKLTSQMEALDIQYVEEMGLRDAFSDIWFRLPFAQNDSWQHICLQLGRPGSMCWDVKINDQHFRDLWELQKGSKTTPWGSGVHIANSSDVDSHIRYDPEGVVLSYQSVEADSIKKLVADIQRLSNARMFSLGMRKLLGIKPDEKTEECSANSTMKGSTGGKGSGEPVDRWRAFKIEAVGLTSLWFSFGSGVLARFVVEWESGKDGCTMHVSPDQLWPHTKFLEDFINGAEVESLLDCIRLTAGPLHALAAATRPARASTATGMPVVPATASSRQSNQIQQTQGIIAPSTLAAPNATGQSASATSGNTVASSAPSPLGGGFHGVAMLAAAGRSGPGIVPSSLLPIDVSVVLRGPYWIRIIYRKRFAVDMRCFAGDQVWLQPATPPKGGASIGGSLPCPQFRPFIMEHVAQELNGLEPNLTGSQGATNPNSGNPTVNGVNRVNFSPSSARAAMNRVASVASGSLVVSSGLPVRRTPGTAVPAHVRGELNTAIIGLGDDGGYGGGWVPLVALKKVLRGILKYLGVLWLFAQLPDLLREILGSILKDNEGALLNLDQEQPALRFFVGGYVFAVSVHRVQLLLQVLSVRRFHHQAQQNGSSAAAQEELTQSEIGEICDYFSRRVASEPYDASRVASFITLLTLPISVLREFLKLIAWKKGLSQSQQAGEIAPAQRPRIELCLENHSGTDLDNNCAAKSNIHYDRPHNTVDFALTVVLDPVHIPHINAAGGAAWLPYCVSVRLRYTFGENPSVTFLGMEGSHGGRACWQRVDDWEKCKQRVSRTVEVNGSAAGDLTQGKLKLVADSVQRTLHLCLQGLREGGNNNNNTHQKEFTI

Biological target: GST-HMR (HEMERA) (Arabidopsis thaliana) (UniProt F4IHY7)
Assay: pull-down; GST-PIF4 or GST-HMR bait immobilised on glutathione Sepharose 4B beads, incubated with in vitro translated HA-MED14 at 4°C for 2 h; washed four times with E buffer (50 mM Tris-HCl pH 7.5, 100 mM NaCl, 1 mM EDTA, 1 mM EGTA, 1% DMSO, 2 mM DTT, 0.1% Nonidet P-40); anti-HA immunoblot; only the target purified

## HA-MED14 (from UniProt Q9SR02 1-1703)
  binding: binds

No constants are given. Whether binding was seen depends on the method and setting. In cells and extracts the contact can be indirect. Binding calls can cover weak binding; strength is not graded here.
